From patent publication CN117500522A
These are yes or no findings as the source states them, for the method shown. Some binding calls cover weakened binding; strength is not graded here.

Chains of the proteins cited; added tags and fusions are not shown. Lines headed by an entry give the natural chain unless they say otherwise; changes in a name come on top. A line that says so, or that is headed by a name, gives the form on record, which may keep a tag or linker.
人半乳糖凝集素-9 (human galectin-9) (O00182, form named): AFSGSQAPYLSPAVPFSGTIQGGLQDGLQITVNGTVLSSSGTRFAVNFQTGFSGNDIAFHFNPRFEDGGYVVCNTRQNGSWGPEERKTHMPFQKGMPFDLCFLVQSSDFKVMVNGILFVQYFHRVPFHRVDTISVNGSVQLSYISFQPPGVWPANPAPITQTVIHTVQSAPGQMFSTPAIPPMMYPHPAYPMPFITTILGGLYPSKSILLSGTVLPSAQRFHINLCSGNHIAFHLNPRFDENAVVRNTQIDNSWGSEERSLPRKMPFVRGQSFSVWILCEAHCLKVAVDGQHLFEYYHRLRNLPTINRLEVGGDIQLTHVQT

B1: G9.2-17(IgG4) (antibody, V domains shown)
VH: EVQLVESGGGLVQPGGSLRLSCAASGFTVSSSSIHWVRQAPGKGLEWVAYISSSSGYTYYADSVKGRFTISADTSKNTAYLQMNSLRAEDTAVYYCARYWSYPSWWPYRGMDYWGQGTLVTVSS
VL: DIQMTQSPSSLSASVGDRVTITCRASQSVSSAVAWYQQKPGKAPKLLIYSASSLYSGVPSRFSGSRSGTDFTLTISSLQPEDFATYYCQQSSTDPITFGQGTKVEIKR
B2: mIgG1 G9.2-17 (antibody, V domains shown)
VH: EVQLVESGGGLVQPGGSLRLSCAASGFTVSSSSIHWVRQAPGKGLEWVAYISSSSGYTYYADSVKGRFTISADTSKNTAYLQMNSLRAEDTAVYYCARYWSYPSWWPYRGMDYWGQGTLVTVSS
VL: DIQMTQSPSSLSASVGDRVTITCRASQSVSSAVAWYQQKPGKAPKLLIYSASSLYSGVPSRFSGSRSGTDFTLTISSLQPEDFATYYCQQSSTDPITFGQGTKVEIKR

How the values were obtained:
[1] = target: 人半乳糖凝集素-9 (human galectin-9) (human) (UniProt O00182); assay: HuProt human proteome microarray, fluorescent secondary antibody
[2] = target: 人细胞表达的半乳糖凝集素-9 (galectin-9 as expressed by human tumour-derived cells and tissue) (human) (UniProt O00182); assay: cell-based binding to human cancer cell line CRL-2134

| Binder | binding [1] | binding [2] |
| --- | --- | --- |
| B1 | binds | – |
| B2 | – | binds |
